Experimental data published in patent publication US20250060373A1, “NOVEL ASSAY AND NOVEL METHODS OF TREATING HUTCHINSON-GILFORD PROGERIA SYNDROME” (The Progeria Research Foundation, priority 2021, published 2025).

System: plasma progerin
Assay: Diurnal variation in plasma progerin using pharmacokinetics (pK) sample sets, trough vs post-dose
Format: in vivo, human

What does the source list for `NC(=O)N1CCC(CC(=O)N2CCC([C@H]3c4ncc(Br)cc4CCc4cc(Cl)cc(Br)c43)CC2)CC1` [lonafarnib]?
average difference between progerin trough and 2-, 4- and 8-hours post-dose (ProLon1, lonafarnib dose 115 mg/m^2, trough significantly lower, all p<0.05): about 3,000 μg/mL; progerin post-dose vs. trough levels (ProLon1 at 150 mg/m^2, post-dose hours 1, 2, 4, 6, 8, all p>0.05): did not demonstrate significant changes
